Test results published in paper PMC7266993.
Where a chain is given by its changes, count along the chain named. These are yes or no findings as the source states them, for the method shown. In cells and extracts the contact can be indirect. Some entries that bind do so weakly or less than the wild type. Where a sequence is shown, tags or fusion partners need not be part of it.

Protein sequences, listed by entry. Tags and fused reporters are not part of them.
UniProt Q9UQE7: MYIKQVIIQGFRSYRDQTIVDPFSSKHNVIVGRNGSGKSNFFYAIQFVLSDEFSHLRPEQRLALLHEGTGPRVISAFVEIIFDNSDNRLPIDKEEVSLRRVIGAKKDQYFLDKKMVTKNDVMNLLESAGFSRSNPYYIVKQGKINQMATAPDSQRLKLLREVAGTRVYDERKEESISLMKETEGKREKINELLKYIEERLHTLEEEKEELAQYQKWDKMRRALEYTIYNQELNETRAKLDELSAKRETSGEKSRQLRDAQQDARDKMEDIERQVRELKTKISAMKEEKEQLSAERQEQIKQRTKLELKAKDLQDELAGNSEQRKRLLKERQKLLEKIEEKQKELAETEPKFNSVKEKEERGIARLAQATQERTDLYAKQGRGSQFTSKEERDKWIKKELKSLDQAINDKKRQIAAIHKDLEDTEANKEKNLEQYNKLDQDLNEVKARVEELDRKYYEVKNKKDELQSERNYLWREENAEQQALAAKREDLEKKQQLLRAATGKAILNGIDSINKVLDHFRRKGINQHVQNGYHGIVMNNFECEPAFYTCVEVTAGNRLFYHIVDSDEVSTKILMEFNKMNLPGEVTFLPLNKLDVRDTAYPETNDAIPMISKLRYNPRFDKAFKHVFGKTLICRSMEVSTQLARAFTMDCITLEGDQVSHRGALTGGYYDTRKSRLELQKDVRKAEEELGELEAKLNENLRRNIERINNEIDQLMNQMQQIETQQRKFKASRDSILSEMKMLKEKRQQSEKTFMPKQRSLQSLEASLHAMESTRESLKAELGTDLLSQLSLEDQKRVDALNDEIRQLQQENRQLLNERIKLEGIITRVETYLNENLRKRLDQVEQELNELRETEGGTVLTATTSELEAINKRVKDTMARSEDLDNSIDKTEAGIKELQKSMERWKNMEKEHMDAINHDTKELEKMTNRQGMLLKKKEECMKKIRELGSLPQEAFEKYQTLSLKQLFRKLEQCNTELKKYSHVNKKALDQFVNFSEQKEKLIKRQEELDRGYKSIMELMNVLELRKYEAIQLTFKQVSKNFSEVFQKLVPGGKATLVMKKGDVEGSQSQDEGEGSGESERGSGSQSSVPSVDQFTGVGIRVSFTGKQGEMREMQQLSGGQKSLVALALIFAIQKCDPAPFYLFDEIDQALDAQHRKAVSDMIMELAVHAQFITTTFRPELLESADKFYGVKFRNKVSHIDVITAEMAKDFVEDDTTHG

Assays:
[1] = biological target: T1, FLAG–STAG1 D797A, siRNA-resistant transgene (stable, HCT 116 STAG2-502c4) (human) (UniProt Q8WVM7); assay: co-IP; FLAG-STAG1 variants stably expressed in HCT 116 STAG2-502c4; anti-FLAG M2 agarose overnight; 50 mM Tris-Cl pH 7.4, 150 mM NaCl, 0.5% NP-40; capillary immunodetection of cohesin ring members
T1 sequence: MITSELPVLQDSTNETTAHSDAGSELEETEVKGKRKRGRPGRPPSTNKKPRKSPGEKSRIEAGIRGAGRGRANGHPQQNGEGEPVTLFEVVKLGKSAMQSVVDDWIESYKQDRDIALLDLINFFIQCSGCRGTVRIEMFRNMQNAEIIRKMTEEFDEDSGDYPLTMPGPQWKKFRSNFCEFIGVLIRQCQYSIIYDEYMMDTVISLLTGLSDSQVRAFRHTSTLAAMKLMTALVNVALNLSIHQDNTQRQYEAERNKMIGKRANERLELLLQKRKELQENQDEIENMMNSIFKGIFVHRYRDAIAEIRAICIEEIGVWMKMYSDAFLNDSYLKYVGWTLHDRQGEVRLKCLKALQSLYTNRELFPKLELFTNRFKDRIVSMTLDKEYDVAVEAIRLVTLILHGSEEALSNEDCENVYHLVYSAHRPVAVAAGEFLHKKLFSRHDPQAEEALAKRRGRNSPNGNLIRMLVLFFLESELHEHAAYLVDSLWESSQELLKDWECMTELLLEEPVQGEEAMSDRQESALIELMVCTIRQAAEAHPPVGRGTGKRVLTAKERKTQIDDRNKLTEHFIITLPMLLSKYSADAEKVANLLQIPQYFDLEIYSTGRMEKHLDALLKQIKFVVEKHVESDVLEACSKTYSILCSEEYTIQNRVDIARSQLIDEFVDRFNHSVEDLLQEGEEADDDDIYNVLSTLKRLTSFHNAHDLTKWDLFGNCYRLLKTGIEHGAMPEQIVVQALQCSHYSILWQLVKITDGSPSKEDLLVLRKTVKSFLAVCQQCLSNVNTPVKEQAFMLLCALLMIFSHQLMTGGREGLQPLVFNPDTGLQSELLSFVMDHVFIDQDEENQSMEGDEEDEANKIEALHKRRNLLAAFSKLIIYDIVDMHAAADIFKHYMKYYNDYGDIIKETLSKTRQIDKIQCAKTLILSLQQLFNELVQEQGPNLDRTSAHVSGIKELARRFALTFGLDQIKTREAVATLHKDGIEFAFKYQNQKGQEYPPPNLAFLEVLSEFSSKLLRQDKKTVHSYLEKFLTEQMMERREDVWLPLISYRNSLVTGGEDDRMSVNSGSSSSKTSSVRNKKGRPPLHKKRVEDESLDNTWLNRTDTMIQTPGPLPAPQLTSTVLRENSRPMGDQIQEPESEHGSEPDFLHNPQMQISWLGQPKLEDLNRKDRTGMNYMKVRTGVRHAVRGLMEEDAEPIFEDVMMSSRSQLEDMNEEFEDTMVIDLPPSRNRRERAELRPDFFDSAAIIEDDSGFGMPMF

[2] = biological target: T2, FLAG–STAG1 D797K, siRNA-resistant transgene (stable, HCT 116 STAG2-502c4) (human) (UniProt Q8WVM7); assay: as above
T2 sequence: T1 sequence with A797K

[3] = biological target: T3, FLAG–STAG1 wild type, siRNA-resistant transgene (stable, HCT 116 STAG2-502c4) (human) (UniProt Q8WVM7); assay: as above
T3 sequence: T1 sequence with A797D

[4] = biological target: T4, FLAG epitope-tagged STAG1, wild type (transient, HEK293) (human) (UniProt Q8WVM7); assay: co-IP; FLAG-STAG1 variants transiently expressed in HEK293, 48 h; anti-FLAG M2 agarose 2 h; 25 mM Tris-HCl pH 7.5, 100 mM KCl, 5 mM MgCl2, 0.2% NP-40, 10% glycerol, benzonase; immunoblot and capillary immunodetection of cohesin subunits
T4 sequence: T1 sequence with A797D

Row | binding [1] | binding [2] | binding [3] | binding [4] | Substance
1 | no binding | no binding | binds | – | SMC3 (endogenous, HCT 116 STAG2-502c4) (from UniProt Q9UQE7 1-1217)
2 | – | – | – | binds | SMC3 (endogenous, HEK293) (from UniProt Q9UQE7 1-1217)
